Experimental data reported in article PMC5076532.
Results are given in words; binding and its absence hold for the method and conditions named. Some results given as binding are weak or reduced against the parent protein; the word gives no strength. Each block holds one substance with its values, some of them ahead of it.

By UniProt entry, the sequences of proteins in these tests, tags left out. Where a name states a change or a piece, a line headed by the entry shows the natural chain unless it says otherwise. Chains listed by the source or under a name are the forms on record and can include a tag or linker.
UniProt Q62717: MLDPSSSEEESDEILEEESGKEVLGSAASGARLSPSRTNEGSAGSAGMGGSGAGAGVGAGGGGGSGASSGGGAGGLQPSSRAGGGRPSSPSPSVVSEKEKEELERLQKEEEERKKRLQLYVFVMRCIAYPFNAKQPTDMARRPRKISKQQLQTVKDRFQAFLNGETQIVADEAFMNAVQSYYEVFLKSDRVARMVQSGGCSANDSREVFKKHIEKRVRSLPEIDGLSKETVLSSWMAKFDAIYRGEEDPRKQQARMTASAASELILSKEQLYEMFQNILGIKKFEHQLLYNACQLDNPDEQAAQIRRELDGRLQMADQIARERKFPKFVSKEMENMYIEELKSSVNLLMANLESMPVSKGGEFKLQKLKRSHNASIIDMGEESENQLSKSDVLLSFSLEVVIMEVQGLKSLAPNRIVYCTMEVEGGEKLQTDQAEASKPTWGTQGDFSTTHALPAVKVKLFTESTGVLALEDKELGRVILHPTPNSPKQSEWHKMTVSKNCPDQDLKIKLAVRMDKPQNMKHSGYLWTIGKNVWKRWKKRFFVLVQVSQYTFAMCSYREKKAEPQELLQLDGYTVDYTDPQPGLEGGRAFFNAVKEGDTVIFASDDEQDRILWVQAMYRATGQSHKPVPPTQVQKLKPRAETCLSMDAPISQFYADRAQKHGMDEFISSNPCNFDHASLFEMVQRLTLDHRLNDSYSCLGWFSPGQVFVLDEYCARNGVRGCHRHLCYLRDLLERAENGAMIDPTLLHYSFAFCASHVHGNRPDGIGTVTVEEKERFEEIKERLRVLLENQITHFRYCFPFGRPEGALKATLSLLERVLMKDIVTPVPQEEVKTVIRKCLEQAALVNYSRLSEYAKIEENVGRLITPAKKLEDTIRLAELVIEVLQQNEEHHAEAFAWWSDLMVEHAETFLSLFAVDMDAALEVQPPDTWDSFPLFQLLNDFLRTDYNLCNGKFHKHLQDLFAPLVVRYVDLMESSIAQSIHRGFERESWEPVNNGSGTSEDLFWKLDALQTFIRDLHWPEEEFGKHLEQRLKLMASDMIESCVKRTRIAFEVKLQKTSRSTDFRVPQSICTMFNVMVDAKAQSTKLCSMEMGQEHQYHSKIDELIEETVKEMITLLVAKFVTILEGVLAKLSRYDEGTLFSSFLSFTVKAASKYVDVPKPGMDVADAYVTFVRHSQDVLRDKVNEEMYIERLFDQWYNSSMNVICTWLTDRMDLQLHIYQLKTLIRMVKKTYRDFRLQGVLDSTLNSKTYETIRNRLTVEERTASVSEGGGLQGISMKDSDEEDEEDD
CAPS(ΔC2)-Myc-His (Q62717, form named): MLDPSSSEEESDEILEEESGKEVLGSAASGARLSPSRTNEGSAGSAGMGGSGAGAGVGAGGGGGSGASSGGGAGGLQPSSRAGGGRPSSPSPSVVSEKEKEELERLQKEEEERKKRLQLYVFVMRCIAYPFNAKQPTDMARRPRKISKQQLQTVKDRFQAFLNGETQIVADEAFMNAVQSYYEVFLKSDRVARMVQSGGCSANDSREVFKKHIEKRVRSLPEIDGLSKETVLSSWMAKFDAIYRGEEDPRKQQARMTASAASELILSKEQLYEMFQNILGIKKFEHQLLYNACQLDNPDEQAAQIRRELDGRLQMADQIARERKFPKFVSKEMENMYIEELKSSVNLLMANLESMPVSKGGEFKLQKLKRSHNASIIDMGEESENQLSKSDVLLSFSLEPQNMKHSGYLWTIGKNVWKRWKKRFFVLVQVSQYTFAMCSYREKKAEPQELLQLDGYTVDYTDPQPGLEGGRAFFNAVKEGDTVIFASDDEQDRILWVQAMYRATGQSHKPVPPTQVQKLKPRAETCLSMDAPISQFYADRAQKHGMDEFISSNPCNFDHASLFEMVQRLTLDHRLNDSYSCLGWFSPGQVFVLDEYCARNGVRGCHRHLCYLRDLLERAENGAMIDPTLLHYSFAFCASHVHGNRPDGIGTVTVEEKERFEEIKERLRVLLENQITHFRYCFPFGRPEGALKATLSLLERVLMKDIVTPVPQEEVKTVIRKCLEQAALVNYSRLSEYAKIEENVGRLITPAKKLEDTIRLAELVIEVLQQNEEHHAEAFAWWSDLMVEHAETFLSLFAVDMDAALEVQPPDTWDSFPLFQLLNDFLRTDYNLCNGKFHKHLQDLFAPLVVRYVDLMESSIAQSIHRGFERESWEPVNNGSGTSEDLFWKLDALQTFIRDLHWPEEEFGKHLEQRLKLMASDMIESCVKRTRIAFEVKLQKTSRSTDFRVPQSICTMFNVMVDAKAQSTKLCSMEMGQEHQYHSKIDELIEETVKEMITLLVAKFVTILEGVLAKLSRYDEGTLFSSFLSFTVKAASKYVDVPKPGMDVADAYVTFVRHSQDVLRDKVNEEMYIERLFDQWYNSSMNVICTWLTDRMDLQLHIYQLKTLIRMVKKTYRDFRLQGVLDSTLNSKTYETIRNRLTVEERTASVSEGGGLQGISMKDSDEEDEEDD

What was measured:
[1] = target: CAPS(ΔC2)-Myc-His (Rattus norvegicus) (UniProt Q62717); assay: native gel or EMSA; blue native (BN-PAGE, 5-14% or 6-14%) or clear native (CN-PAGE, 6%, 4 °C) gels of purified soluble protein without lipid; Coomassie or Western blot (CAPS or Myc antibody); 20 mM HEPES, 10 mM NaCl, 10 mM imidazole, 5% glycerol, pH 7.4 for CN-PAGE; both purified
[2] = target: CAPS-Myc-His (recombinant wild-type rat CAPS) (Rattus norvegicus) (UniProt Q62717); assay: SEC; Sephacryl-300 by FPLC; fractions analysed by clear native gels and immunoblotting, at once and after 24 h on ice; both purified
[3] = target: native CAPS of PC12 cells (cytosolic and membrane-bound) (rat (endogenous in PC12)) (UniProt Q62717); assay: native gel or EMSA; CN-PAGE of the 300 mM NaCl (high salt) extract of washed permeable PC12 cells (cell ghosts), Western blot with CAPS antibody

binding [1]: binds weakly
Substance: CAPS(ΔC2)-Myc-His (from UniProt Q62717 1-1289)

binding [2]: binds weakly
Substance: CAPS-Myc-His (recombinant wild-type rat CAPS) (from UniProt Q62717 1-1289)

binding [3]: binds
Substance: native CAPS of PC12 cells (cytosolic and membrane-bound) (from UniProt Q62717 1-1289)
